# Assay results: patent US6716837B1, “Heterocyclic compounds for the treatment of migraine” (NPS Allelix Biopharmaceuticals, Inc., priority 1999, dated 2004)
# By UniProt entry, the sequences of proteins in these tests, tags left out.
# UniProt P28222, whole entry: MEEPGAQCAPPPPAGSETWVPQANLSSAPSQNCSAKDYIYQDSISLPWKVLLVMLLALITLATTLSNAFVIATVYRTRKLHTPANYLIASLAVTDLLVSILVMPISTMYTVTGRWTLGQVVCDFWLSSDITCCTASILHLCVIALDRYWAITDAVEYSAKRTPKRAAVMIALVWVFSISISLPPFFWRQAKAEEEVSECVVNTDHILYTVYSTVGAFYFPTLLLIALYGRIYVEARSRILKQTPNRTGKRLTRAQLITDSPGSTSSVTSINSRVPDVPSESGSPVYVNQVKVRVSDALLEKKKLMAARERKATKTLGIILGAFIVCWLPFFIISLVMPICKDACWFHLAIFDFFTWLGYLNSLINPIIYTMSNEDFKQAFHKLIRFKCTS
# Some entries share one result that the patent states for a list of compounds.
# Target: T1, 5-HT1B receptor (Homo sapiens, UniProt P28222)
# T1 construct: expressed in transfected cells
# Assay: 5-HT1B receptor binding, inhibition of 3H-serotonin binding
# Conditions: 3H-serotonin 2.5 nM; membranes from recombinant cells; 60 minute incubation at 22° C.; 100 nM stated only for 5-HT1D
smiles,measurement,value
"CC(C)n1ncc2ccc(CCN(C)C)cc21 [Example 14, 6-(2-(N,N-Dimethylamino)ethyl)-1-isopropyl-1H-indazole]",percent inhibition at the 5-HT1B receptor,less than 60%
"CN1CC=C(c2ccc3ccn(-c4cccnc4)c3c2)CC1 [Example 19d, 6-(N-Methyl-1,2,5,6-tetrahydropyridin-4-yl)-1-(3-pyridyl)-indole]",percent inhibition at the 5-HT1B receptor,less than 60%
